The values below come from US6136781A (Takeda Chemical Industries, Ltd., priority 1995, dated 2000).

A short description of series [1]: solution-phase peptide synthesis; DCC/HONB (ONB active esters). As to conditions: coupling step.
Another series is described as follows: peptide synthesis. To be noted: whole synthesis, scale 0.25 mmol.
Series [2] can be described thus: general procedure: solution-phase peptide synthesis; DCC/HONB (ONB active esters). To be noted: for crude yield: whole synthesis; for cyclisation yield: cyclisation step.
The nature of series [3]: Boc solid-phase peptide synthesis; DCC/HONB (ONB active esters). To be noted: whole synthesis.

For part of these data: Strings that start with PEPTIDE1 are HELM notation: dots part the residues, brackets hold end groups and non-standard residues. Square brackets hold non-standard residues; d marks the D form. * marks the point of attachment. Phe(4-Cl) = N[C@@H](Cc1ccc(Cl)cc1)C(=O)O; 2Nal = N[C@@H](Cc1ccc2ccccc2c1)C(=O)O; Fmoc = O=C(OCC1c2ccccc2-c2ccccc21)*; Mtr = COc1cc(C)c(S(=O)(=O)*)c(C)c1C; Tos = Cc1ccc(S(=O)(=O)*)cc1; BrZ = O=C(OCc1ccccc1Br)*; OPac = O=C(CO*)c1ccccc1; Boc = CC(C)(C)OC(=O)*

Substance Boc-PY(BrZ)[dW]LR(Tos)-OPac showed a step yield in series [1] of 85.9%.
As to Boc-WPY(BrZ)[dW]LR(Tos)-OPac, the step yield in series [1] is 82.8%.
As for Fmoc-[dA]WF[dR](Mtr)F-OH, the crude mass in the series “peptide synthesis” was 96 mg. This substance also registered a crude yield in series [2] of 82.8%.
Turning to “Boc-D-Arg(Tos)-Lys(SO2 Nap(1))-D-Tyr(Br-Z)-Trp-Leu-OPac”, the step yield in series [1] came to 74.0%.
For cyclo([Phe(4-Cl)]R(Tos)[2Nal][dA]W), the crude yield in series [3] is 59.1%.
With cyclo(-Lys-D-Glu(Php)-Tyr-D-Trp-Leu-), the cyclisation yield in series [2] was 23.5%.
Substance “Boc-D-Lys(SO2 Nap(1))-Tyr(Br-Z)-D-Trp-Leu-OPac” came in with a step yield in series [2] (coupling step) of 93.2%.
On the same count and under the same terms, the same measure for “Boc-D-Lys(SO2 Nap(1))-D-Tyr(Br-Z)-Arg(Tos)-D-Trp-Leu-OPac”: 98.1%.
As for cyclo(FR(Tos)F[dA]W), in series [2], the cyclisation yield was determined as 71.5%.
In series [2] (coupling step), “Boc-Arg (Tos)-D-Glu (NHCH2 CH2 Ph)-Tyr(Br-Z)-D-Trp-Leu-OPac” registered a step yield of 83.3%.
The substance Boc-Lys(COPh)-D-Trp-Trp-Arg(Tos)-OPac yielded a step yield in series [2] (coupling step) of 90.4%.
Still for that read-out and setting: the same measure for “Boc-D-Glu((4)-MeOPhp)-Tyr(Br-Z)-D-Trp-Leu-OPac”: 68.9%.
Still for that read-out and setting: the same measure for “Boc-Arg(Tos)-D-Glu(NHCH2 CH2 Ph)-Asp (NHCH2 Ph)-D-Trp-Leu-OPac”: 91.3%.
“cyclo(-Arg-D-Glu((4)-MeOPhp)-Tyr-D-Trp-Leu-)” yielded a cyclisation yield in series [2] of 24.4%.
In series [2] (coupling step), “Boc-D-Glu(NHCH2 CH2 Ph)-Tyr(Br-Z)-D-Trp-Trp-Arg(Tos)-OPac” gave a step yield of 98.0%.
For “cyclo(-Arg-D-Glu(NHCH2 CH2 Ph)-Lys(COPh)-D-Trp-Trp-)”, the cyclisation yield in series [2] was 13.9%.
In turn, Boc-[dW]Y(BrZ)[dW]LR(Tos)-OPac returned a step yield in series [2] (coupling step) of 91.0%.
On the same count and under the same terms, the same measure for Boc-Glu(Php)-Tyr(Br-Z)-D-Trp-Leu-OPac: 69.2%.
As for “PEPTIDE1{F.[dR].F.[dA].W}$PEPTIDE1,PEPTIDE1,5:R2-1:R1$$$V2.0”, the step yield in series [2] (late stage modification step) worked out at 39.0%.
As for cyclo(R[dK](Ac)Y[dW]L), the cyclisation yield in series [2] is on record as 23.9%.
In turn, “cyclo(-Arg-D-Glu(NHCH2 CH2 Ph)-Lys(CONap(1))-D-Trp-Leu-)” yielded a step yield in series [2] (late stage modification step) of 90.7%.
In series [2], “PEPTIDE1{[Thg(2)].[D-Arg(Tos)].F.[dA].W}$PEPTIDE1,PEPTIDE1,1:R1-5:R2$$$V2.0” returned a cyclisation yield of 13.8% and a crude yield of 72.4%.
Consider cyclo(-Arg-D-Glu(Bzlp)-Tyr-D-Trp-Leu-), for which the cyclisation yield in series [2] was found to be 21.6%.
In series [2] (late stage modification step), cyclo([Phe(4-Cl)][dR][2Nal][dA]W) came in with a step yield of 39%.
Take cyclo([Phe(4-Cl)][dR](Tos)[2Nal][dA]W): the crude yield in series [3] is recorded as 92.8%.
The substance cyclo(-Arg-D-Glu(Php)-Tyr-D-Trp-Leu-) showed a cyclisation yield in series [2] of 71.7%.
For “Boc-Arg(Tos)-D-Lys(COCH2 Ph)-Tyr(Br-Z)-D-Trp-Leu-OPac”, in series [2] (coupling step), the step yield turned out to be 35.6%.
Take “cyclo(-Arg-D-Glu((2)-MeOPhp)-Tyr-D-Trp-Leu-)”: the cyclisation yield in series [2] amounted to 9.20%.
